From paper PMC12592336
Results are given in words; binding and its absence hold for the method and conditions named. In cells and extracts the contact can be indirect.

Protein sequences, listed by entry. Tags and fused reporters are not part of them. Lines headed by an entry give the natural chain unless they say otherwise; changes in a name come on top.
UniProt P60953: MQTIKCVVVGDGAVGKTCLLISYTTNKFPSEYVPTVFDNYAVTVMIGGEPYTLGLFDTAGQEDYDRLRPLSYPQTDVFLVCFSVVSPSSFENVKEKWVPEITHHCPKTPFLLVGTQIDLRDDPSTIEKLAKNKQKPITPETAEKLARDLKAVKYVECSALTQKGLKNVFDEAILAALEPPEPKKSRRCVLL

Key:
Experiment in all cases: co-IP; anti-Flag beads on NP-40 lysates (50 mM Tris-HCl pH 8.0, 150 mM NaCl, 1% NP-40) of HepG2-NTCP CDC42-WT, CDC42-CA and CDC42-DN cells, 4 °C overnight; blots for NTCP and Rab11
[1] = biological target: Flag-tagged constitutively active CDC42 (CA, G12V) (human) (UniProt P60953)
[2] = biological target: Flag-tagged dominant-negative CDC42 (DN, T17D) (human) (UniProt P60953)
[3] = biological target: Flag-tagged wild-type CDC42 (human) (UniProt P60953)

binding [1]: no binding | binding [2]: no binding | binding [3]: no binding
B1: sodium taurocholate co-transporting polypeptide (NTCP) (receptor, UniProt Q14973 1-349)
chain: MEAHNASAPFNFTLPPNFGKRPTDLALSVILVFMLFFIMLSLGCTMEFSKIKAHLWKPKGLAIALVAQYGIMPLTAFVLGKVFRLKNIEALAILVCGCSPGGNLSNVFSLAMKGDMNLSIVMTTCSTFCALGMMPLLLYIYSRGIYDGDLKDKVPYKGIVISLVLVLIPCTIGIVLKSKRPQYMRYVIKGGMIIILLCSVAVTVLSAINVGKSIMFAMTPLLIATSSLMPFIGFLLGYVLSALFCLNGRCRRTVSMETGCQNVQLCSTILNVAFPPEVIGPLFFFPLLYMIFQLGEGLLLIAIFWCYEKFKTPKDKTKMIYTAATTEETIPGALGNGTYKGEDCSPCTA
